According to paper PMC8446793:
These are yes or no findings as the source states them, for the method shown. Binding seen in cells or lysates may run through a third protein. A yes stands for co-enrichment or nearness to the bait. Other partners may have been found.

Target: ELKS-1 tagged C-terminally with CeTurboID::mNeongreen::3XFLAG (C. elegans)
Assay: proximity labelling; TurboID knocked into the endogenous elks-1 locus; living L4 or young adult worms in M9 with 1 mM biotin for 2 h at 22 °C; denaturing extraction (1% SDS, 2 M urea), streptavidin Dynabeads, SDS-PAGE and LC-MS/MS; enrichment against wild-type worms and worms with free TurboID-mNG in the nervous system (rab-3p) processed in parallel

Row | binding | Binder
1 | binds | SAD-1/BRSK1 (protein, UniProt Q19469 1-914) MFEALKEVLGEINSKLAAVNNELSSKIMSENIVSTRPVAQAQYCGPYKLEKTLGKGQTGLVKTGTHCITGRKVAIKIVNKEKLSESVLQKVEREIAIMKLIEHPHVLHLYDVYENKKYLYLLLEHVSGGELFDYLVRKGRLMSKEARKFFRQIISALDFCHAHNICHRDLKPENLLLDERNNIKVADFGMASLQVEGSMLETSCGSPHYACPEVIRGEKYDGRKADVWSCGVILYALLVGALPFDDDNLRNLLEKVKRGVFHIPHFVPADVQSLLRAMIEVDPGKRYSLADVFKHPWVSGTTKADPELELPMSQVVQTHVIPGEDSIDPDVLRHMNCLGCFKDKQKLINELLSPKHNTEKMVYFLLLDRKRRRPAQEDDTEIVLRGAAQNNDPPKKRTDSSRTSRYPMGSIADGSPINPRKTYGRNQKSGRHSSLGGSPTESPRSSTRDLFGSSSSGSYSARAGEDRDRGRSASRSTNSYHYYTQPVDPQTLAEAARHVRDAQERRESRDSGRGSSRKESKDRSDKSASSSSCKNDASSTSSVPHKYSPPSVMSESVVVSSSTMNSTNSSTNSLIAGNSQTSIGSTSGPWRSKLNNIKNSFLGTPRFHRRKMSNGTAESDSEDSQMIDTTDLVKKSWFGSLASSMSVERDDTHCVPVQGKTLNSIKAELIRAFLQIHELSHSVVGQNCFRVEYKRGPTVGGSVFSRGIKMNVDIIPSPQQVVIAGETPTYVVQFVLLAGPVRRFKRLVEHLSAILQNSTQQRADRQQQAALMVRPRRLSDSSVGSACSDSESNASSINMIARHSDKTETTSATSSDPYGPSPSMRSVGSGTANSYKSPTPHRRNTTAVTASSSSASNRYGPSSSSSGSYSNNADYSYHPEYSQRSNGSSAPKNQYSPGSQRSFAFSMFNKADKV
2 | binds | SYD-1/SYDE1 (protein, UniProt Q86NH1 1-987) MLISTSLKFLTMLTSNGFGGTNPPKGMPYPPTYLYTEEPQNECCCCWLCRLLCCCSPVDQTASRSRMNASQPPPGGGGRLPDEVFRKITAVDQGQSTLTQSGIQGLSARTLSSEPRGDLVFQLVEIIKKPGQSLGLYLREGNGKDRSDGVFVSRFGDNSELAKYGEVMRPGDEILTINNVEVSMMSIDDVVLILSIPRRLLLRIRYSKSMRHEIISSRSRESERPVVVFHKYDDRRDSETNAPILSQPTSTANTWLGKKSRQQMEEMRNATTSSTLRTHASTSSPRNHFAPRLVNGHSHSIGVPSASTTSHDHQYQRFASEPSDSVSRTARVPPPRLASATVRRTESFNSAPGVSTSAPMYTLPRSSTAVPPPDILGSIPYSARDPLMRSSADLPYDPMTGRLSSSVPTDPLLSRSLCSPILPRTLRQANDSNKSNSLPRRRIMTGGRNVKWRNDVVSTSDLCGEESDGAISAPEYSSPPFSRLTQQQQFRLSNGSPGRTVNDIFSAAEYRNWAGPYDPRGMYGPFPPGQRATRWSHTYGEQRAPRTSSLPGRTVLAQSLVGSPVLPRHPPPIVQDRPSAVFDRYHVSPLMNRRAPLRAAGPGINVDRLSVSSLTGILYVHIVEGRGLKIPEKQKGLTEEMYCVLEVDEQHRARTGVSTIEQKFKWRETFHIDVVNATVSNFFVYSWHPQFRHKLCHKGSLKLLEAFVVDQLNDDRVFALNLEPRGQLIVRIGFHDLQAVFRRTVNPRLNGVFGISLSRLVQRERRDTPIVLTRLIQEIEKRGVDYSGLYVLCGSVEKKKMLRAELESNPLGTELAAESIPDTNVIACLIKDFLRELPEPLISPQIHGMLLEAASVALPNDVQTNRHLVLKIIDCLQLSAKNCLLLVLDHLSTVLCSSPHNGLTPTRLSLIFAPLLFFCLDTFSPYTISPTSKMAAVRTLDINQASSSLQMILSIWPSRVNSESGSDSPATTCQKGGVIAYVSESQC
